In paper doi:10.1101/2021.12.08.471779 one finds binding data, which are given here for seven substances.

Protein sequences, listed by entry. Tags and fused reporters are not part of them. Lines headed by an entry give the natural chain unless they say otherwise; changes in a name come on top.
UniProt P02929, whole entry, looked up, stated change not applied: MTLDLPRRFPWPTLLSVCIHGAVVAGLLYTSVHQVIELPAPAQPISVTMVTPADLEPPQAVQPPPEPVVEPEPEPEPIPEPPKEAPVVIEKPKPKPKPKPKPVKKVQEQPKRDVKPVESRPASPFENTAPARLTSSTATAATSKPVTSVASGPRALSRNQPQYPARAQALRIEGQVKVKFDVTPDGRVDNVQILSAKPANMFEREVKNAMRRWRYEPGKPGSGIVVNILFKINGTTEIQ

What all share (assay): cross-linking
Assay [1] has as its target T1, FepA E152C (Escherichia coli K-12) (UniProt P05825).
T1 sequence: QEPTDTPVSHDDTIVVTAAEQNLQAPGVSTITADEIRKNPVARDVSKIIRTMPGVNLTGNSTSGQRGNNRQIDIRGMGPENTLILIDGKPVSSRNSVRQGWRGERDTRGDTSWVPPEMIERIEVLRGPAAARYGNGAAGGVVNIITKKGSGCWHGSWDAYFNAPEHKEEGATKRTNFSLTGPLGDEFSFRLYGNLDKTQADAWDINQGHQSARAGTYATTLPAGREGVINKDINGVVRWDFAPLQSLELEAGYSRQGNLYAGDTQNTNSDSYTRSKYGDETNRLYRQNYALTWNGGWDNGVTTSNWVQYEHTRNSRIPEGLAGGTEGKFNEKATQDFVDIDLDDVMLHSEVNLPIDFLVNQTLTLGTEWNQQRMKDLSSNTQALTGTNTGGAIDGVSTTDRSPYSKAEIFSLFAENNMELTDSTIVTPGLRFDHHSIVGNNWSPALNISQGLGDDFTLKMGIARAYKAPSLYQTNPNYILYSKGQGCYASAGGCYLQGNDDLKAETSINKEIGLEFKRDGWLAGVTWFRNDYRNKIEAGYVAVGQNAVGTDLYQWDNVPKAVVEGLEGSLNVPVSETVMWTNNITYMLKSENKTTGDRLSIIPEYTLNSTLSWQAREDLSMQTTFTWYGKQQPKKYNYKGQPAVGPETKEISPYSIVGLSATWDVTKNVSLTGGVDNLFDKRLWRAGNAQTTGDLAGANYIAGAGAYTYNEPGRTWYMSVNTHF

Assay [2] deals with T2, FepA D519C (Escherichia coli K-12) (UniProt P05825).
T2 sequence: T1 sequence with C152E, D519C

Assay [3] has as its target T3, FepA E35C (Escherichia coli K-12) (UniProt P05825).
T3 sequence: T1 sequence with E35C, C152E

Numbering of substitutions follows the chain as printed. These are yes or no findings as the source states them, for the method shown. In cells and extracts the contact can be indirect. Some entries that bind do so weakly or less than the wild type.

On to “TonB C18G A209C (from UniProt P02929 1-239)”, for which the binding result in assay [1], in assay [2] and in assay [3] was “no binding” throughout.

Turning to “TonB C18G H20A R204C (from UniProt P02929 1-239)”, the binding result in assay [1] was “binds”.

Consider “TonB C18G N208C (from UniProt P02929 1-239)”, for which the binding entry in assay [1] and in assay [2] was “binds weakly” in each case.

On to “TonB C18G Q160C (from UniProt P02929 1-239)”, for which the binding result in assay [2] was “binds weakly”; in assay [3], “binds”.

Regarding “TonB C18G R204C (from UniProt P02929 1-239)”, the binding entry is “binds” in assay [1] and “no binding” in assay [3].

Regarding “TonB C18G R212C (from UniProt P02929 1-239)”, in assay [2], the binding entry is “binds”.

As to “TonB C18G V206C (from UniProt P02929 1-239)”, the binding entry in assay [1], in assay [2] and in assay [3] was “no binding” in each case.
